Measured values: paper PMC12586598, “A novel long-acting C5a-blocking cyclic peptide prevents sepsis-induced organ dysfunction via effective blockade of the inflammatory cascade” (Signal Transduction and Targeted Therapy, 2025)
No constants are given. Whether binding was seen depends on the method and setting. Some entries that bind do so weakly or less than the wild type.

The chains behind the UniProt entries cited, without tags or fusion partners. Residues count along the entry.
UniProt P21730: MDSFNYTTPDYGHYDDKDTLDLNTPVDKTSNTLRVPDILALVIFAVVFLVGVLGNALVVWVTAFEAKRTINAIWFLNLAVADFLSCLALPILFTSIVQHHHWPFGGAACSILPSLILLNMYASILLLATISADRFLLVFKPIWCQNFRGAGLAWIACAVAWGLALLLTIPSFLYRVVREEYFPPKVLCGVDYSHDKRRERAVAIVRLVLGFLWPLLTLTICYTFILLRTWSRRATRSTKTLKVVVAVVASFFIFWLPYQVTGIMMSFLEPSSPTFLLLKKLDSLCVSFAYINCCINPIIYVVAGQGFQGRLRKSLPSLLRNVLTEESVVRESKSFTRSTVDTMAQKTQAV
UniProt P01031, residues 678-751: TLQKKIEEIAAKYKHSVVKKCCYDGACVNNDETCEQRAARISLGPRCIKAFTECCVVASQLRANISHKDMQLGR

Target: C5aR1 on PMNs (UniProt P21730)
Test: flow cytometry on cells; 10 ng Cy5-labeled human C5a on PMNs (resting or stimulated with 10 ng/mL TNF-α for 12 h), 4 °C, 0.5 h; PMNs preincubated with C5aR1-antibody, C5aR2-antibody, Cp1 or combinations; only the binder purified

With “Cy5-labeled human C5a (from UniProt P01031 678-751) (ligand)” the binding was “binds”.
